Not every detail of the peptide structures is certain; ends, links or a residue may be inferred. Positions of bridges follow the written chain, without caps; N, C: chain ends. Non-standard residues stand in square brackets, D forms with d. Residues, ends and D or L forms follow the SMILES beside them. dPhe(4-Cl) = N[C@H](Cc1ccc(Cl)cc1)C(=O)O; d2Nal = N[C@H](Cc1ccc2ccccc2c1)C(=O)O; dOrn = NCCC[C@@H](N)C(=O)O; Dap = NC[C@H](N)C(=O)O
System: mature female Sprague-Dawley rats
Assay: In vivo test of effectiveness to prevent ovulation in female rats
Set-up: species or system rat
Settings: for Rats Ovulating: rats ovulating/rats treated
[1] = Dosage 10 μg, injected at about noon on the day of proestrous
[2] = Dosage 25 μg, injected at about noon on the day of proestrous
[3] = Dosage 100 μg, injected at about noon on the day of proestrous
[4] = Dosage 500 μg, injected at about noon on the day of proestrous
[5] = Dosage 50 μg, injected at about noon on the day of proestrous
[6] = female rats, injected at about noon on the day of proestrous

For `CC(=O)N[C@@H]1CC(=O)NCCCC[C@H](C(=O)N[C@@H](CO)C(=O)N[C@@H](Cc2ccc(O)cc2)C(=O)N[C@H](Cc2ccc3ccccc3c2)C(=O)N[C@@H](CC(C)C)C(=O)N[C@@H](CCCNC(=N)N)C(=O)N2CCC[C@H]2C(=O)N[C@H](C)C(N)=O)NC(=O)[C@@H](Cc2ccc(Cl)cc2)NC1=O` [compound 153] (Ac-[dD][dPhe(4-Cl)][dK]SY[d2Nal]LRP[dA]-NH2; lactam 1-3), the “Rats Ovulating” value [1] was 2/8, the “Rats Ovulating” value [2] was 1/11 and the “Rats Ovulating” value [3] was 0/5. For the same molecule, the “Rats Ovulating” value [4] was 0/7.
In the case of `CC(=O)N[C@@H]1CCC(=O)NCCC[C@H](C(=O)N[C@@H](CO)C(=O)N[C@@H](Cc2ccc(O)cc2)C(=O)N[C@H](Cc2ccc3ccccc3c2)C(=O)N[C@@H](CC(C)C)C(=O)N[C@@H](CCCNC(=N)N)C(=O)N2CCC[C@H]2C(=O)N[C@H](C)C(N)=O)NC(=O)[C@@H](Cc2ccc(Cl)cc2)NC1=O` [compound 156] (Ac-[dE][dPhe(4-Cl)][dOrn]SY[d2Nal]LRP[dA]-NH2; lactam 1-3), the “Rats Ovulating” value [2] is reported as 5/10, the “Rats Ovulating” value [5] is reported as 0/8 and the “Rats Ovulating” value [3] is reported as 0/10.
For `CC(=O)N[C@@H]1CCC(=O)NCCCC[C@H](C(=O)N[C@@H](CO)C(=O)N[C@@H](Cc2ccc(O)cc2)C(=O)N[C@H](Cc2ccc3ccccc3c2)C(=O)N[C@@H](CC(C)C)C(=O)N[C@@H](CCCNC(=N)N)C(=O)N2CCC[C@H]2C(=O)N[C@H](C)C(N)=O)NC(=O)[C@@H](Cc2ccc(Cl)cc2)NC1=O` [compound 154] (Ac-[dE][dPhe(4-Cl)][dK]SY[d2Nal]LRP[dA]-NH2; lactam 1-3), the “Rats Ovulating” value [3] was 0/7 and the “Rats Ovulating” value [4] was 0/7.
In the case of `CC(=O)N[C@H]1CC(=O)NC[C@@H](C(=O)N[C@@H](CO)C(=O)N[C@@H](Cc2ccc(O)cc2)C(=O)N[C@H](CCCNC(=N)N)C(=O)N[C@@H](CC(C)C)C(=O)N[C@@H](CCCNC(=N)N)C(=O)N2CCC[C@H]2C(=O)N[C@H](C)C(N)=O)NC(=O)[C@@H](Cc2ccc(Cl)cc2)NC1=O` [compound 158] (Ac-D[dPhe(4-Cl)][Dap]SY[dR]LRP[dA]-NH2; lactam 1-3), the “Rats Ovulating” value [3] is reported as 4/5 and the “Rats Ovulating” value [4] is reported as 3/5.
In the case of `CC(=O)N[C@H](Cc1ccc2ccccc2c1)C(=O)N[C@H](Cc1ccc(Cl)cc1)C(=O)N[C@H](Cc1c[nH]c2ccccc12)C(=O)N[C@H]1CC(=O)NC[C@@H](C(N)=O)NC(=O)[C@@H]2CCCN2C(=O)[C@@H]2CCCCNC(=O)CC[C@H](NC1=O)C(=O)N[C@H](CCCNC(=N)N)C(=O)N[C@@H](CC(C)C)C(=O)N2` [Peptide No. 1, (Cyclo 4-10,5-8) [Ac-β-D-2NAL^1, (4Cl)D-Phe^2, D-Trp^3, Asp^4, Glu^5, D-Arg^6, Lys^8, Dpr^10]-GnRH] (Ac-[d2Nal][dPhe(4-Cl)][dW]DE[dR]LKP[Dap]-NH2; lactam 4-10, 5-8), the “Rats Ovulating” value (Dosage 2.5 μg, injected at about noon on the day of proestrous) is reported as 9/10, the “Rats Ovulating” value (Dosage 5 μg, injected at about noon on the day of proestrous) is reported as 2/10 and the “Rats Ovulating” value [1] is reported as 0/10. For the same molecule, the “Rats Ovulating” value [2] was 1/7, the “Rats Ovulating” value [5] was 0/7 and the “effectiveness to prevent ovulation (in words)” value (female rats / female mammals, at low or reasonable dosages) was “significantly effective”. The “dose at which it may be effective to prevent ovulation of female rats” value [6] was “about 100 μg/Kg” and the “dose considered totally effective to prevent ovulation of female rats” value [6] was “about 500 micrograms Kg of body weight”.

Source: patent publication US5064939A, “Cyclic GnRH antagonists” (The Salk Institute for Biological Studies, priority 1990, dated 1991)
